Experimental data taken from patent US20160304625A1.
No constants are given. Whether binding was seen depends on the method and setting.

How the values were obtained:
[1] = molecular target: human membrane bound IgG with lambda light chain (mIgG-lambda) (human); assay: hemadsorption, viable CRL 2289 cells
[2] = molecular target: human membrane bound IgG with lambda light chain (mIgG-lambda) (human); assay: ELISA sandwich assay of cell lysate, CRL 2289

binding [2]: no binding
B1: monoclonal antibody mAb4-2b (antibody, mouse IgG1, V domains shown)
VH: EVQLEESGAELVKPGASLKLSCKASGYTFTSYWMNWVKQRPGQGLEWIGIIHPNSGSTNYNEKFKTKATLTVDKSSSTAYMQLSSLTSEDSAVYYCARTRGNYGMDYWGQGTSVTVSS
VL: DIVMTQSHKFMSTSVGDRVSITCKASQDVSTAVAWYQQKPGQSPTLLIYSASYRNTGVPDRFTGSGSGTDFTFTISSVQAEDLAVYYCQQHFSIPPLTFGAGTKLELKR
binding [1]: no binding
